According to article PMC11233569:
Results are given in words; binding and its absence hold for the method and conditions named. Binding seen in cells or lysates may run through a third protein. Some binding calls cover weakened binding; strength is not graded here. For some assays here: Where a sequence is shown, tags or fusion partners need not be part of it.

By UniProt entry, the sequences of proteins in these tests, tags left out.
UniProt Q15629: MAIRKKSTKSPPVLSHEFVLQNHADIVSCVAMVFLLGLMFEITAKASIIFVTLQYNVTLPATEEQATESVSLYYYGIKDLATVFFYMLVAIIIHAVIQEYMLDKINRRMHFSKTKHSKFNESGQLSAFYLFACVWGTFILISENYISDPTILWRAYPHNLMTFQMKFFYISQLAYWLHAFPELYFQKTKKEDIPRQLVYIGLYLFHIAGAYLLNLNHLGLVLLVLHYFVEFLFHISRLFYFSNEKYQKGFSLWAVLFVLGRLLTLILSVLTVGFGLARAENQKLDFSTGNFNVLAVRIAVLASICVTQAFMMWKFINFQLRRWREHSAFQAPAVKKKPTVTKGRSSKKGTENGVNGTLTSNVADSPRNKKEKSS

Columns and labels:
[1] = molecular target: T1, Flag-tagged TREX1 (human) (UniProt Q9NSU2); assay: co-IP; HEK293T cells transiently transfected with Flag-tagged TREX1 and His-tagged TRAM1; bidirectional Co-IP, western blot
T1 sequence: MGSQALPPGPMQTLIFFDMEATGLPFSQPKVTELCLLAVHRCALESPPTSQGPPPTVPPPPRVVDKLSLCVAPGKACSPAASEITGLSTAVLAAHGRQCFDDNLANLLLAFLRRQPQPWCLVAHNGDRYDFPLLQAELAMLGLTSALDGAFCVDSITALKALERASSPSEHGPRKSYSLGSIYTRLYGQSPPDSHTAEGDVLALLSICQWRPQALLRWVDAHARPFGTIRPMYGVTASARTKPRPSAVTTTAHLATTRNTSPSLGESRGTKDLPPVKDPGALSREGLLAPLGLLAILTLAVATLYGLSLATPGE

[2] = molecular target: T2, endogenous TREX1 (three-prime repair exonuclease 1) (human (endogenous in NP cells)) (UniProt Q9NSU2); assay: co-IP; endogenous forward and reverse Co-IP in normal (passage 2) and senescent (passage 8) human NP cells; NP-40 lysate, 3-5 ug primary or control antibody overnight at 4 C, protein A/G magnetic beads, western blot
T2 sequence: T1 sequence

Substance: His-tagged TRAM1 (from UniProt Q15629 1-374)
- binding [1]: binds

Substance: endogenous translocating chain-associating membrane protein 1 (TRAM1) (from UniProt Q15629 1-374)
- binding [2]: binds
